# In US20230139883A1, “Peptides for Inducing Differentiation” (Shimadzu Corporation, priority 2020, published 2023):
# Chains of the proteins cited; added tags and fusions are not shown. Residues count along the entry.
# UniProt P11362, residues 22-376: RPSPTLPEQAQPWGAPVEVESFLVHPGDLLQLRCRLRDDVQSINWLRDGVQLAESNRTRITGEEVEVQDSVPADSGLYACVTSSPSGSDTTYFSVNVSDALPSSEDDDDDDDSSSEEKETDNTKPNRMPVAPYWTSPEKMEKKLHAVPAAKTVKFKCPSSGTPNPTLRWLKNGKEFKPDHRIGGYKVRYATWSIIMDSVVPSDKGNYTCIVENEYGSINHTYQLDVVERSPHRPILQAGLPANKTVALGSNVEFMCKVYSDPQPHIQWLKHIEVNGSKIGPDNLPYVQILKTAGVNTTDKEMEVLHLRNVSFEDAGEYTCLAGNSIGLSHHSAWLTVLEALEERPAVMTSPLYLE
# No constants are given. Whether binding was seen depends on the method and setting. Some entries that bind do so weakly or less than the wild type.
# B1: 100nX (X is 9: SEQ ID NO: 9) (peptide)
# peptide: CAAELAALEAELAALEGVPGDNNGTRGKLYHLKNKLHRLKNAC
# Columns and labels:
# FGFR1 (FGF receptor 1) [1] = target: FGFR1 (FGF receptor 1) (UniProt P11362); assay: heading of Example 11, same peptide as in Example 1 (SPR)
# FGFR1 (FGF receptor 1) [2] = target: FGFR1 (FGF receptor 1) (UniProt P11362); assay: SPR, Biacore T200, FGFR1 amine-coupled to the chip, peptide as analyte, 1:1 model
binder,measurement,setting,value
B1,binding,FGFR1 (FGF receptor 1) [1],binds
same,binding,FGFR1 (FGF receptor 1) [2],binds
